For two compounds, Ki results are on record in ChEMBL document CHEMBL1155799 (Bioorg Med Chem, 2008).

Protein sequences, listed by entry. Tags and fused reporters are not part of them.
UniProt Q63380, whole entry: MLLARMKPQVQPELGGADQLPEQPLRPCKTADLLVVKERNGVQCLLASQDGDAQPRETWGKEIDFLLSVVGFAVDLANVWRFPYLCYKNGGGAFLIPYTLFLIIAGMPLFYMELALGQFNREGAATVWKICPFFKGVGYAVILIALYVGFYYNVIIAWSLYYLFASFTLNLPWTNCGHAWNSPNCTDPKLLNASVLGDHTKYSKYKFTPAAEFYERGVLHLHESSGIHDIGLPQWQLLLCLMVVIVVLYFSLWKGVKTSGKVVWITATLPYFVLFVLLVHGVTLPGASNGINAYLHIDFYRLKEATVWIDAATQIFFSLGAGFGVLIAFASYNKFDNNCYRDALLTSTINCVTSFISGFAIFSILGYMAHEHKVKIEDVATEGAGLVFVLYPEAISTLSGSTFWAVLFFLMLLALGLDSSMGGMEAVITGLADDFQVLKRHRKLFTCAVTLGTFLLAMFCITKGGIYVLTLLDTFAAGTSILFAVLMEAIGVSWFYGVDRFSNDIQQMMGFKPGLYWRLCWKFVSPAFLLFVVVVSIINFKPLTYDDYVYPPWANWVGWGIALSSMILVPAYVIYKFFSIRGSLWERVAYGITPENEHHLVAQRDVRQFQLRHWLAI

The target in this experiment is Transporter (Rattus norvegicus, UniProt Q63380).

For `O=C(CCCN1CCC(O)(c2ccc(Cl)cc2)CC1)c1ccc(F)cc1` [HALOPERIDOL], the affinity corresponds to a Ki of 5.5 µM.

The compound `Cc1cc2c(s1)Nc1ccccc1N=C2N1CCN(C)CC1` [OLANZAPINE] showed an inhibition constant (Ki) of 2 µM.

By Ki is commonly meant the dissociation constant of the complex between target and ligand, obtained from inhibition or displacement. A higher Ki goes with a looser hold on the target.
